Results are given in words; binding and its absence hold for the method and conditions named. Binding seen in cells or lysates may run through a third protein. Some binding calls cover weakened binding; strength is not graded here. For some assays here: Tags and fused reporters may be left off the sequences shown.

Protein sequences, listed by entry. Tags and fused reporters are not part of them.
UniProt P52294: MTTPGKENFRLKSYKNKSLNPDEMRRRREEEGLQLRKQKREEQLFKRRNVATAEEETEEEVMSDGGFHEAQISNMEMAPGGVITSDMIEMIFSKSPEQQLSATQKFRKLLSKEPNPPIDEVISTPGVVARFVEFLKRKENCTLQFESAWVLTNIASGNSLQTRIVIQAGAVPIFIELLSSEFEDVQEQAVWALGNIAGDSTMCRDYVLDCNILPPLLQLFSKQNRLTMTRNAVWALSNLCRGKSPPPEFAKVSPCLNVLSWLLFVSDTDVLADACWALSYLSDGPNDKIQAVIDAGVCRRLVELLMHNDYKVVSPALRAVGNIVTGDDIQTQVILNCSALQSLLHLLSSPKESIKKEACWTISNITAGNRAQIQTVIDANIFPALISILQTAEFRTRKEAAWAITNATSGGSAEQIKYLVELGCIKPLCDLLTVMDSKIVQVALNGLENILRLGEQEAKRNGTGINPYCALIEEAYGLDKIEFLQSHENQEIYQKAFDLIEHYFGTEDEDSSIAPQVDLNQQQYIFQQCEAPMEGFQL
UniProt Q14974: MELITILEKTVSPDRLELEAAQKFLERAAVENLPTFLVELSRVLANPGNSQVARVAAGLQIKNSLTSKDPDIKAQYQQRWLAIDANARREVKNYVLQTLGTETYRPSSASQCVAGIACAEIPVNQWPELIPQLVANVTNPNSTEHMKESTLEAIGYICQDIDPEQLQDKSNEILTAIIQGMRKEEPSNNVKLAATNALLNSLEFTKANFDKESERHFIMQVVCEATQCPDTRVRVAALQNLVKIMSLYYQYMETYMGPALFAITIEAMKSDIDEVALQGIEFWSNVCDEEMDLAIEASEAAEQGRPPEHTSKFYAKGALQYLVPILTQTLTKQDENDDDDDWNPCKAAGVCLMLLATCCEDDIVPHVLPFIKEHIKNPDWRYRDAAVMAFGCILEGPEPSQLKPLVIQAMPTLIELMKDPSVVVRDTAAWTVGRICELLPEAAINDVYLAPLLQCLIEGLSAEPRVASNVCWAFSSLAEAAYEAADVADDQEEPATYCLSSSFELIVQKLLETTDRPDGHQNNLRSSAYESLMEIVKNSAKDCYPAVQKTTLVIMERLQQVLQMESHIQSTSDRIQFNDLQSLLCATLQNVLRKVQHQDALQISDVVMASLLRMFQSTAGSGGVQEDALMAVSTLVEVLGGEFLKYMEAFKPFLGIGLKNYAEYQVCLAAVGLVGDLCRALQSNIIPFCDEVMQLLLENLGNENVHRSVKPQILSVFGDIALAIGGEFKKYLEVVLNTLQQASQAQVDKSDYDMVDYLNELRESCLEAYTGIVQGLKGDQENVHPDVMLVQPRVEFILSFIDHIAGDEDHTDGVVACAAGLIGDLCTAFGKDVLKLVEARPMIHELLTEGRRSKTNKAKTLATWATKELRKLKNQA

Our source for the binding values is paper PMC12548386.

For one assay, the target named is Myc-tagged KPNA1 (UniProt P52294). Kind of assay: co-IP; HEK293 co-transfected with Myc-KPNA1 and Vec (HA) or HA-NS5, IFN-α 1,000 U/mL 30 min; IP with anti-Myc, IB with KPNB1 antibody.
A further assay addresses T1, Myc-STAT1, P42224.
T1 chain: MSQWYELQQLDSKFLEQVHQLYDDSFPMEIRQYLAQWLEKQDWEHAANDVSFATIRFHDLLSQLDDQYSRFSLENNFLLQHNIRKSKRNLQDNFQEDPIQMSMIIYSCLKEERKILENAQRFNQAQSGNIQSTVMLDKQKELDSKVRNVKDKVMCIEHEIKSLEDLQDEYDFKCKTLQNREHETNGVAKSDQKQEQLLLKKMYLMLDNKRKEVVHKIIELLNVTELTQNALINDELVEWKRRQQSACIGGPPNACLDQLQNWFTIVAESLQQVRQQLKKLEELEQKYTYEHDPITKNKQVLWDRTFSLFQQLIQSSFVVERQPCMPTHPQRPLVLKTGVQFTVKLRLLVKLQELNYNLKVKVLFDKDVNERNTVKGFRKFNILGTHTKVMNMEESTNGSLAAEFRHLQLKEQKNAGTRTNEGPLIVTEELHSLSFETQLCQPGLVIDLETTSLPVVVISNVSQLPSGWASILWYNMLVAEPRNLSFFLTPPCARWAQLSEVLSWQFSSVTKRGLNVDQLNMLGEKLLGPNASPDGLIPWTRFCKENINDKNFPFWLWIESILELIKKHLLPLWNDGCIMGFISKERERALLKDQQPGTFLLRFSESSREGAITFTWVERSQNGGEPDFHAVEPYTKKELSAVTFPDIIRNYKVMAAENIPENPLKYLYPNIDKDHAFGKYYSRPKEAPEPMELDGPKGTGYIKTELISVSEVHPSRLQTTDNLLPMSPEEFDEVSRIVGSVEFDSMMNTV
In words: co-IP; HeLa or HEK293 co-transfected with Myc-STAT1 and Vec (HA) or HA-NS5, IFN-α 1,000 U/mL 30 min; IP with Myc-tag antibody, IB with pSTAT2 and IRF9 antibodies. The conditions noted are these: remark: other sources report otherwise.

In the case of “KPNB1 (endogenous) (from UniProt Q14974 1-876)”, the binding entry with Myc-tagged KPNA1 is “binds”.

B1: IFN regulatory factor 9, Q00978 1-393 (protein)
chain: MASGRARCTRKLRNWVVEQVESGQFPGVCWDDTAKTMFRIPWKHAGKQDFREDQDAAFFKAWAIFKGKYKEGDTGGPAVWKTRLRCALNKSSEFKEVPERGRMDVAEPYKVYQLLPPGIVSGQPGTQKVPSKRQHSSVSSERKEEEDAMQNCTLSPSVLQDSLNNEEEGASGGAVHSDIGSSSSSSSPEPQEVTDTTEAPFQGDQRSLEFLLPPEPDYSLLLTFIYNGRVVGEAQVQSLDCRLVAEPSGSESSMEQVLFPKPGPLEPTQRLLSQLERGILVASNPRGLFVQRLCPIPISWNAPQAPPGPGPHLLPSNECVELFRTAYFCRDLVRYFQGLGPPPKFQVTLNFWEESHGSSHTPQNLITVKMEQAFARYLLEQTPEQQAAILSLV
Regarding B1, the binding entry with Myc-STAT1, P42224 was “binds”.
